The other results are listed elsewhere or left out. Repeats are few or missing, and single values can be far off.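 Imaging used 1,536-well plates; nuclei positive for cleaved PARP by antibody were divided by total DNA-stained nuclei to yield the apoptosis fraction. Doses for screening kept most cells viable, and cell lines differ markedly in resting and induced cleaved-PARP levels.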
Legend:
Assay in all cases: cleaved PARP positive nuclei fraction relative to DMSO control; melanoma cells; higher = more apoptosis
Settings in all cases: library dose: low library concentration; 72 h
[1] = test system: WM115
[2] = test system: WM1716
[3] = test system: WM1745
[4] = test system: WM3526
[5] = test system: WM3619
[6] = test system: WM451Lu

| Compound | cleaved PARP positive nuclei fraction [1] [%] | cleaved PARP positive nuclei fraction [2] [%] | cleaved PARP positive nuclei fraction [3] [%] | cleaved PARP positive nuclei fraction [4] [%] | cleaved PARP positive nuclei fraction [5] [%] | cleaved PARP positive nuclei fraction [6] [%] |
| --- | --- | --- | --- | --- | --- | --- |
| C[C@]1(O)C[C@@H](c2nc(-c3ccc4ccc(-c5ccccc5)nc4c3)c3c(N)nccn32)C1 + C/C(O)=C(\C#N)C(=O)Nc1cc(Br)ccc1Br [LFM-A13] (first compound 0.4 µM, partner dose 2 µM) | 122 | 114 | 121 | 183 | 95.1 | 70.5 |
| CCN(CC)CCNC(=O)c1c(C)[nH]c(/C=C2\C(=O)Nc3ccc(F)cc32)c1C [sunitinib] + C[As](C)SC[C@H](NC(=O)CC[C@H](N)C(=O)O)C(=O)NCC(=O)O [Darinaparsin] (first compound 0.4 µM, partner dose 0.4 µM) | 88.1 | 26.6 | 100 | 91.6 | 177 | 46.8 |
| Cn1sc(=O)n(Cc2ccccc2)c1=O + Cc1cc(SCc2sc(-c3ccc(C(F)(F)F)c(F)c3)nc2C)ccc1OCC(=O)O [GW0742] (first compound 0.4 µM, partner dose 2 µM) | 114 | 33.7 | 557 | 141 | 101 | 211 |
| C[As](C)SC[C@H](NC(=O)CC[C@H](N)C(=O)O)C(=O)NCC(=O)O [Darinaparsin] + O=C(O)c1ccc(-c2c[nH]c3ncc(-c4ccccc4)cc23)cc1C1CCCC1 [GSK650394] (first compound 0.4 µM, partner dose 0.16 µM) | 150 | 109 | 211 | 146 | 180 | 54.5 |
| CCCCCCCCCCCCCCCCCCOP(=O)([O-])OC1CC[N+](C)(C)CC1 [Perifosine] + Cc1cc(SCc2sc(-c3ccc(C(F)(F)F)c(F)c3)nc2C)ccc1OCC(=O)O [GW0742] (first compound 0.4 µM, partner dose 2 µM) | 65.7 | 117 | 104 | 160 | 96.9 | 104 |
| OCCn1cc(-c2cnc3nnn(Cc4ccc5ncccc5c4)c3n2)cn1 + C/C(O)=C(\C#N)C(=O)Nc1cc(Br)ccc1Br [LFM-A13] (first compound 1 µM, partner dose 2 µM) | 143 | 110 | 104 | 148 | 97.4 | 76.9 |
| Cn1cc(C2=C(c3cn(C4CCN(Cc5ccccn5)CC4)c4ccccc34)C(=O)NC2=O)c2ccccc21 [Enzastaurin] + CS(=O)(=O)c1ccc(C(=O)Nc2ccc(Cl)c(-c3ccccn3)c2)c(Cl)c1 [vismodegib] (first compound 0.8 µM, partner dose 1 µM) | 113 | 136 | 91 | 149 | 76.6 | 231 |
| Cc1cc(SCc2sc(-c3ccc(C(F)(F)F)c(F)c3)nc2C)ccc1OCC(=O)O + CCCCCCCCCCCC1=C(O)C(=O)C=C(O)C1=O [Embelin] (first compound 2 µM, partner dose 1.2 µM) | 67.1 | 71.6 | 103 | 59 | 72.5 | 251 |
| C[As](C)SC[C@H](NC(=O)CC[C@H](N)C(=O)O)C(=O)NCC(=O)O [Darinaparsin] + COCC[n+]1c2c(n(Cc3cnccn3)c1C)C(=O)c1ccccc1C2=O [YM155] (first compound 0.4 µM, partner dose 0.0004 µM) | 95.2 | 41.9 | 98.3 | 101 | 87.7 | 56.7 |
| C[C@]12O[C@H](C[C@]1(O)CO)n1c3ccccc3c3c4c(c5c6ccccc6n2c5c31)CNC4=O [Lestaurtinib] + O=C1NC(=O)/C(=C/c2ccc(-c3ccc(F)cc3O)o2)S1 [AS252424] (first compound 0.004 µM, partner dose 1 µM) | 29.6 | 183 | 91.9 | 157 | 91 | 35.6 |
| C[As](C)SC[C@H](NC(=O)CC[C@H](N)C(=O)O)C(=O)NCC(=O)O [Darinaparsin] + COc1cc(N2CCC(N3CCN(C)CC3)CC2)ccc1Nc1ncc(Cl)c(Nc2ccccc2S(=O)(=O)C(C)C)n1 [NVP-TAE684] (first compound 0.4 µM, partner dose 0.08 µM) | 163 | 71.3 | 125 | 82.4 | 148 | 252 |
| N#CC[C@H](C1CCCC1)n1cc(-c2ncnc3[nH]ccc23)cn1 [ruxolitinib] + C/C(O)=C(\C#N)C(=O)Nc1cc(Br)ccc1Br [LFM-A13] (first compound 1 µM, partner dose 2 µM) | 194 | 108 | 93.3 | 338 | 218 | 32.7 |
| COc1ccc(C2=N[C@@H](c3ccc(Cl)cc3)[C@@H](c3ccc(Cl)cc3)N2C(=O)N2CCNC(=O)C2)c(OC(C)C)c1 [Nutlin-3] + C/C(O)=C(\C#N)C(=O)Nc1cc(Br)ccc1Br [LFM-A13] (first compound 0.1 µM, partner dose 2 µM) | 142 | 53.7 | 92.4 | 81.9 | 93.8 | 109 |
| Cn1cc(C2=C(c3cn(C4CCN(Cc5ccccn5)CC4)c4ccccc34)C(=O)NC2=O)c2ccccc21 [Enzastaurin] + NC1(c2ccc(-c3nc4ccn5c(=O)[nH]nc5c4cc3-c3ccccc3)cc2)CCC1 [MK2206] (first compound 0.8 µM, partner dose 0.4 µM) | 135 | 68.6 | 115 | 86.1 | 115 | 73 |
| C[C@]12O[C@H](C[C@]1(O)CO)n1c3ccccc3c3c4c(c5c6ccccc6n2c5c31)CNC4=O [Lestaurtinib] + COC(=O)c1sccc1S(=O)(=O)Nc1ccc(Nc2ccccc2)cc1OC [GSK0660] (first compound 0.004 µM, partner dose 1 µM) | 60.6 | 62 | 91 | 84.5 | 76.2 | 107 |
| C[C@]12O[C@H](C[C@]1(O)CO)n1c3ccccc3c3c4c(c5c6ccccc6n2c5c31)CNC4=O [Lestaurtinib] + CN(NC(=O)CC(=O)NN(C)C(=S)c1ccccc1)C(=S)c1ccccc1 [STA4783] (first compound 0.004 µM, partner dose 0.006 µM) | 124 | 106 | 105 | 68.6 | 90.6 | 53.5 |
| C[C@]12O[C@H](C[C@]1(O)CO)n1c3ccccc3c3c4c(c5c6ccccc6n2c5c31)CNC4=O [Lestaurtinib] + CCCCCCCCc1ccc(CCC(N)(CO)CO)cc1 [fingolimod] (first compound 0.004 µM, partner dose 2 µM) | 40.1 | 69.6 | 113 | 314 | 83.4 | 48 |
| CC1(C)NC(=O)N(c2ccc([N+](=O)[O-])c(C(F)(F)F)c2)C1=O [nilutamide] + C/C(O)=C(\C#N)C(=O)Nc1cc(Br)ccc1Br [LFM-A13] (first compound 1 µM, partner dose 2 µM) | 192 | 89.5 | 118 | 36.2 | 97 | 60.1 |
| Cc1ccc(NC(=O)c2cccc(N(C)C)c2)cc1NC(=O)c1ccc(O)cc1 + O=C(Oc1ccc([N+](=O)[O-])cc1)N1CCC(C(O)(c2ccc3c(c2)OCO3)c2ccc3c(c2)OCO3)CC1 [JZL184] (first compound 2 µM, partner dose 1 µM) | 150 | 118 | 101 | 73.5 | 77.9 | 92 |
| N.N.[Cl][Pt][Cl] [cisplatin] + O=c1cc(-c2cccc3c2Sc2ccccc2S3)oc(N2CCOCC2)c1 [KU55933] (first compound 1.6 µM, partner dose 1 µM) | 118 | 45.2 | 79.9 | 71.5 | 89.7 | 142 |
| Cn1cc(C2=C(c3cn(C4CCN(Cc5ccccn5)CC4)c4ccccc34)C(=O)NC2=O)c2ccccc21 [Enzastaurin] + CCCCCCCCc1ccc(CCC(N)(CO)CO)cc1 [fingolimod] (first compound 0.8 µM, partner dose 2 µM) | 112 | 206 | 110 | 29.2 | 141 | 49.1 |
| Cn1cc(C2=C(c3cn(C4CCN(Cc5ccccn5)CC4)c4ccccc34)C(=O)NC2=O)c2ccccc21 [Enzastaurin] + Nc1ncn([C@H]2C[C@H](O)[C@@H](CO)O2)c(=O)n1 [decitabine] (first compound 0.8 µM, partner dose 0.1 µM) | 155 | 77.6 | 104 | 80.3 | 89.4 | 95.6 |
| Cn1cc(C2=C(c3cn(C4CCN(Cc5ccccn5)CC4)c4ccccc34)C(=O)NC2=O)c2ccccc21 [Enzastaurin] + CCN(CC)CCCCNc1ncc2cc(-c3cc(OC)cc(OC)c3)c(NC(=O)NC(C)(C)C)nc2n1 [PD173074] (first compound 0.8 µM, partner dose 0.1 µM) | 41.8 | 92.1 | 106 | 72.4 | 112 | 91.3 |
| COc1ccc(COc2ccc(Cc3cnc(N)nc3N)cc2OC)cc1 + O=C(Oc1ccc([N+](=O)[O-])cc1)N1CCC(C(O)(c2ccc3c(c2)OCO3)c2ccc3c(c2)OCO3)CC1 [JZL184] (first compound 1 µM, partner dose 1 µM) | 167 | 104 | 94.7 | 73 | 68.3 | 127 |

Reference: the supplement of paper PMC4604168 (melanoma cell lines)
